Reference: article PMC5290284, “Portal protein functions akin to a DNA-sensor that couples genome-packaging to icosahedral capsid maturation” (Nature Communications, 2017)

Chains of the proteins cited; added tags and fusions are not shown. Lines headed by an entry give the natural chain unless they say otherwise; changes in a name come on top. Residues count along the entry.
UniProt P26744: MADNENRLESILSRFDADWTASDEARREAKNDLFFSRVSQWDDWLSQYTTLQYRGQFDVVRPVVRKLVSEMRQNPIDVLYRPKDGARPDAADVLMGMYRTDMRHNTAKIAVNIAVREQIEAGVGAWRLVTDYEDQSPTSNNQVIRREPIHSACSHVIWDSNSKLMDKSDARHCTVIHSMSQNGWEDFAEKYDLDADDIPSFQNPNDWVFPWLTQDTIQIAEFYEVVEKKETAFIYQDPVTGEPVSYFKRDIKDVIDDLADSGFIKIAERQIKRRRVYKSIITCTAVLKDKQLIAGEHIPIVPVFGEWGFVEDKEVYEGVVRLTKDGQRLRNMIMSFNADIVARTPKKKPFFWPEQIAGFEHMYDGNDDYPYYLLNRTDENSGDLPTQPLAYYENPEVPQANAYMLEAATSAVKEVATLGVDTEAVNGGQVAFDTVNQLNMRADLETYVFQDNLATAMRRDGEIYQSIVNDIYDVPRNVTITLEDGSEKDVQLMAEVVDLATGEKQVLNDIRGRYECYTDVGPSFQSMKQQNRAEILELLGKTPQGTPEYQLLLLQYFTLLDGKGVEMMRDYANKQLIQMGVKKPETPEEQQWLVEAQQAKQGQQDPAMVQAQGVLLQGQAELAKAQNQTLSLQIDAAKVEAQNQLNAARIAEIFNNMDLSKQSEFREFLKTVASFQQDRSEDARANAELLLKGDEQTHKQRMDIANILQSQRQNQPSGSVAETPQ
UniProt P26745, residues 1-482: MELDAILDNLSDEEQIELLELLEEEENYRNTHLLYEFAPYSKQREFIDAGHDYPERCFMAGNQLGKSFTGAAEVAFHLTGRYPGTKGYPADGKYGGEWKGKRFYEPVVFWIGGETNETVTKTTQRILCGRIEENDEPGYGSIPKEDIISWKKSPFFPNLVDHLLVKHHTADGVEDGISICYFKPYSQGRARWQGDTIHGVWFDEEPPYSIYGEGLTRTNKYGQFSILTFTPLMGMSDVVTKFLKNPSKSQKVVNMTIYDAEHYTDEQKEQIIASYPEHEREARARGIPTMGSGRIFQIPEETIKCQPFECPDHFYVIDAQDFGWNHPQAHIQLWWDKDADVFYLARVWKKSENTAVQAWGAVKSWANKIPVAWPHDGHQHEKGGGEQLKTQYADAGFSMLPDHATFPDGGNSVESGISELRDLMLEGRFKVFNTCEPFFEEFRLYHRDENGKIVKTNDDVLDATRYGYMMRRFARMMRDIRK

Target: P22 PC-portal rings coupled to CNBr-activated Sepharose beads (bacteriophage P22) (UniProt P26744)
Assay: pull-down; PC- or MV-portal rings immobilized on CNBr-activated Sepharose 4B beads; soluble protein added (L-terminase pre-complexed with non-hydrolyzable ATP); bound and unbound fractions on SDS–PAGE; both purified

For “Truncated ΔC-L-terminase (res. 1–482) (from UniProt P26745 1-482) (domain or fragment)”, the binding was “no binding”.

These are yes or no findings as the source states them, for the method shown.
